B1: tRNA (parent)
chain: GUUCCGUUGGCGUAAUGGUAACGCGUCUCCCUCCUAAGGAGAAGACUGCGGGUUCGAGUCCCGUACGGAACG

Variants at the floor of the assay are shown more often than the library holds them.

The variants in the data set derive from B1. As to the kind of experiment: yeast fitness relative to wild type (ratio to wild type); higher = fitter; tRNA-Arg(CCU), competitive growth, 37 C, YPD. The gist of the method: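 Gene amplicons from the start population and from each of six end populations were read by 100-nucleotide paired-end sequencing. Those end populations came from pooled Saccharomyces cerevisiae strains carrying tRNA-Arg(CCU) gene variants at the native locus, competed in YPD at 37°C for 24 hours. Fitness relative to wild type was worked out from changes in genotype frequencies. Genotypes needed ≥ 100 starting reads, and estimates < 0.5 were set to 0.5.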
In the case of GUUCCGUUCGCGUGAUGGUAACGCGACUCCCGCCUAAGGAGAAGACUGCGGGUUCGAGUCCCGUACGGAGCG, the yeast fitness is not above 0.5. The figure for GUUCCGUUGGCGUAAUGGUAACGCGUCUCCGUCCUAAGGAGAAGACUGCGGGUUCGAGUCCCGUAGGGAACG is 0.587; for GUUCCGUUGGCGUAAGGGUAACGCGUCUCCCUCCUAAGGAGAAGACUGCGGGUUCGAGUCCCGUAAGGAACG it is not above 0.5.

As to GUUCCGUUGGCGUAAUGGUAACGCGUGUCCCUCCUAAGGAGAAGACUGCGGGUUCGUGUCCCGUACGUAACG, the yeast fitness was not above 0.5. The figure for GUUGCGUUGGCGUAAUGGUAACGCGUCUCCCUCAUUAGGAGAAGACUGCGGGUUGGAGUCCCGUAAGGAACG is not above 0.5.

Regarding GUUCCGUUGGCGCAAUGGUUACGCGUGUCCCUCCUAUGGAGAAGACUGCGGGUUCGAGUCCCGUACGGAACG, the yeast fitness is not above 0.5.

As for GUUCCGUUGGCAUAAUGGUCACGCGUCUCCCUCCUAAGGUGAAGACUGCGGGUUCGAGUCACGUACGAAACG, the yeast fitness is not above 0.5. The figure for GUUCAGUUGGCGUAUUGGUAAGGCGUCUCCCUCCUAAGGCGAAGACUGGGGGUUCGAGUCCCGUACGGAACG is not above 0.5; for GUUACGUUGGCGUAAUGGUAACGCGUCUCCCUCCUAAGGAGAAGACUGCGGGAUCGAGUCCCGUACGGAACG it is 0.769; for GUUCCGUCGGCGUAUUGGUAACGCGUCUCCCUCCUAAGGAGAAGACUGCGGGUUCGUGUCCCGUACGGUACG it is not above 0.5. The figure for GUUCCGUUGCCGUAAUGGUAACGCGUCACCCUCCUAAGGAGAAGAGUGCCGGUUCGAGUCCCGUACGGAACG is not above 0.5; for GUUCCCUUGGCGUCAUGGUAACGUGUCUACCUCCUAAGCAGAAGACUGCGGGUUCGAGUCCCGUACGGAACG it is not above 0.5; for GUUCCGUUCGCGUAAUGGUAACGCGUCACCCUCCUAAGGAGAAGCCUCCGGGUUCGAGUCCCGUACGGUACG it is not above 0.5. Take GUCCCGUUAGCGUAAUGCGAACGCGUUUCCCUCCUAAGGAGAUGACUGCGGGUUCGAGUCCCGUACUGAACG: the yeast fitness is not above 0.5. The figure for GUUCCGUUGGCGUUAUGGUAACGCGUCUCCCUCCUAAGGUGAAGACUGCGGGUAUGAGUCCCGUACGGAACG is not above 0.5; for GUUCCGUUGGCGUAAUGAUAACGCGUCUUCCUCCUAAGGAGAAGACUGCGGGUUCGAGUCUCGUACGCAACG it is not above 0.5; for GUUCCGUUAGCGCAAUGGUAACGCGUCUGCCUCCUAAGGAGAAGACUGCGGGUUAGAGUCCCGUACGGAACG it is not above 0.5. The figure for GUUCCGUUGGCGUAAUGGUAACGCGUCUCCCUCCUAAGGAGAAAACUGCGGGUUCGAGUCCCGUUCGGAACG is 0.816.

With GUUCCGUUGGCGUAAUGGUAACGCGUCUCCCUCCAAAGGAGAAGACUGGGGGUUCGAGUACCGUACGGAACG, the yeast fitness is not above 0.5.

With GUUCCGUUGGCGUAAUGGUAAGGCGUCUCCCUCCUAUGGGGAUGACUGCGGGUUCGAGUCCCGUCCGGAACG, the yeast fitness was not above 0.5. The figure for GUCCCGUUGGCGUAAUGGUAACGCGUCUCCUUCCUCAGGAGACGACUGCCGGUUCGAGUCCCGUACGGAUCG is not above 0.5.

As to GUUCCGUUAGCGUAACGGUAACGCGUCUGCAUGCUAAGGAAAGGACUGCGGGUUCGAGUCUCGUACGGAACG, the yeast fitness is not above 0.5.

Turning to GUUCCGUGGGCGUAAUGGUAAUGGGUCUCCCUCCUAAGGAGAUGACUGCGGGUUCGAGUCCCGUACGGAACG, the yeast fitness is not above 0.5. The figure for GUUCCGUUGCAGUAAUGAUAACGCGUCUCCCACCUAAGGAGAAGAGUGCGGGUUCGAGUUCCGUACGGAACG is not above 0.5; for GUUCCGCUGGCGUAAUGGUAACGCGUCUCACUCCUAAGGAGAAGACUGCGGGUUCGAGUACCGUACGGAACG it is not above 0.5.

GUCCCGUUGGCGUAAUGGUAACGCGUCUCCCUCCUAAGGAGAAGACUGCGGGUUAGAGUCCCGUACGGAACG: the yeast fitness was determined as 0.687. The figure for GUUCGGUUGGCGUAAUGGUAACGCGUCUCCCUGCUUACGAGAAGACUGCGGGUUCGAGUCCCGUGCGGAACG is not above 0.5; for GUACCGUUGGCGUAAUGGUAACGCGUCUCGCUUCUAAGGAGAAGACUGCGGGUUCGAGUCCCGUACUGAACG it is not above 0.5; for GUUACGUUCGCGUAAUGGUAACGCGUCUCCCUCCUAAGGAGAAGACUGCAGGUUCGAGUCCCCUACGGAACG it is not above 0.5. The figure for GUUCCGUUGGCGUACUGGUAACGCGUCUCCCUCCUAAGGAGAAGACUGCGGGUUCGAGUCCCGUACAGAACG is 0.698; for GUUCCGUUGGCGUUAUGGUAACGCGCAUCCCUGCUAAGGAGAAGCAUGCGGGUUCGAGUCCUGUACGGAACG it is not above 0.5. On to GUUCCGUUGGCGUAAAGGUAACGCGUCUCCCUCCUAAGGAGAAGACUGCGGGUUCCUGUUCCGUACGGAACG, for which the yeast fitness is not above 0.5. The figure for GUUCCGUUGGCGUAAAGGUAACGUGUCUACCUCCUAAGGAGAAGACUGCGGGUUCGAGUCCCGUACGGAACG is 0.57; for GUUCCGUUGGCGUAAUGGUAACGCGUCUGCGUCAUACGGAGAAGACUGCGGGUUCGAGUCCCGUAAGGAACG it is not above 0.5. The figure for GUUCCGUUGGCGUCAUGGUAACGCGUCUCCCUCCUAAGGAGAAGACUGCGGGUUCGGGUCCCGUACGGUACG is not above 0.5; for GUUCCGUUGGCGUAAUGGUAACGCGUCUCCCUCCUAAGGAGAACACUGCGGGUUAGAGUCCCGUAAGGAACG it is not above 0.5; for GUUUCGUUGGCGUAAUGAUACCGCGUCUCCCUCCUAAGGAGACGACUACGGAUUCGAGUCCCAUACGGAACG it is not above 0.5.

GUUCCGUUGGCGUAAUGGUAACGCGUCUACCUCCUUAGGAGAAGACUGCCGGUUGGAGUCGCGUACGGAACG: the yeast fitness was not above 0.5. The figure for GAUCCCUUGGCGUAAUGGUAACGCGUCUCCCUCCUAAGGAGAAGACUGUGGGUUCGAGUCCCGUACGGAACG is not above 0.5; for GUUCGGUCGGCGUAAUGGUAACGCGUCUCCCUCCUAAGGAAAAGACUGCGGGUUCGAGUCCCGUACGGAACG it is not above 0.5.

Take GUUCCGUUGCCGUAAUGGUAACGGGUCUCCCUCCUAAGGAGCAGACUGCGGGGUCGAGUCCCGUACCGAACG: the yeast fitness is not above 0.5. The figure for GUUCCGUUAGCGUAAUAGUAGCGCGUCUCCCUCUUAAGGAGAACACUGCGGGUUCGAGUCCCGUACGGAUCG is not above 0.5; for GUUCCGUUGGCGUAACGGUAACGCGUCUCCCUCCUAAGGGGAAGACUGCGGGUUCGAGUCCCGUUCGGAACG it is not above 0.5; for GUUACGUUGGCGUAAUGGUAACGCGUCUCCCUCCUAAGGAGAAGACUGCGGGUUCGAAUCCCGUACGGAACG it is 0.878. The figure for GUUCCGUUGGCGUAAUGGUAACGCGUCUCCCUCCUGAGGAGAAGAGUGCGGGUGCGAGUCCCGUACGGAACG is not above 0.5; for GUUCCGUUGGCCUUAUGGUAACGCGUCUCCCUCCUAAGGAGAAGACUGCGGGUUCGAGUCGCGCACGGUACG it is not above 0.5. The figure for GUUCCGUUGGCGUAGUGGUAACGCGUCUCCCUCCUAAGGAGAAGUCUACGGGUUAGAGUCCCGUACGGAACG is not above 0.5; for GGUCCGUUGGUGUAAUGGUAUCGCGUCUCCCUCCUAAGGAGAAGACUGCGGGUUCGAGUCCCGUACGGAACG it is not above 0.5. Take GUUCCGUUGGCGUAAUCGUAACGCGUCUCCCUCCUAAGGAGGAGACUGCGGGUUCGAGUCCCGUACGGAGCG: the yeast fitness is not above 0.5. The figure for GUUCCGUUGGCGUUAUGGUAACGAGUCUCCCUCCUAAGGUGAUGACUGCGGGUUCGAGUCCCGUACGGAACG is not above 0.5.

On to GAUCCGUUGGCGUAAUGGUAACGCGUCUCCCUCCUAAGGAGAGGACUGCGGGUUCGAGUCCCGAACGGAACG, for which the yeast fitness was not above 0.5. The figure for GUUCCGUUGGCGUCAUGGUAACGCGUCUCCAUCCUAAAGAGAAGACUGCGGGUUCGAGUCCCGUACGGAACG is not above 0.5.

As to GUUCUGUUGGCCUAAUGGUAACGCGUCUCCCACCAAAGGAGAAGACUGCGGGUCCGAGUCCCGUACGGAACG, the yeast fitness was not above 0.5. On to GUUCCGUUGGCGAAAUGGUAACGCGUCUUCCUCCUAAGGACAAGACUGCGGAUUCGAGUCCCGUACGGAACG, for which the yeast fitness was not above 0.5.

Regarding GUUCGGUUGGCGUAAUGGAAACGCGUCUCCGUCCUAAGGAGAAGACUGGGGGUUCGAGUCCCGUACGGAACG, the yeast fitness is not above 0.5. The figure for GUUCCGUUGGCGUAAUGGUAACGCGUCACCCUCCUAAGGAGAAGACUGCGGGUUCGAGUCCCGGACGGAACG is 0.709; for GUUCCCUUGGCGUAAUGGUAACGCGUCUCCCUCCUAAGGAGAAGACAGCGGGUUCGAGUGCCGUACGGAACG it is not above 0.5. For the variant GUUUCGUUGGCGUCAUGGUAACGCGUCUCCCUCCUAAGGAGAAGACUGCGGGUUCGAGUCUCGUUCGGAACG, the yeast fitness was not above 0.5. The figure for GUACCGUUGGCGUAAUGGUUACGCGUCUCCCUCCUAAGGAGAAGACUGCAGGUUCGAGUGCCGUACGGAACG is not above 0.5; for GUUCCGUUGGCGUAAUGGUAACGCGUCUCCCUCCUAGGGAGAGGACUGCGGGUUCGAGUCCCGUACGGAACG it is 0.734; for GUCGCAUGGGCGUAAUGGUAACGCGUCUCCCUCCUAUGGAGAAGACUGCGGGUUCGAGUCCCGUACGGAACG it is not above 0.5.

In the case of GUUCCGUUGGCGUAACGGUAACGCGUGUCCCUCCUAAGGGGAAGACUACGGGUUCGCGUCCCGUACGGAACG, the yeast fitness is not above 0.5. With GUUCCGUUGGCGUAAUGGUUACGCGUCUCCUUCCUAAGGAGAAGACUGCGGGUUCAAGUCCCGUACGGCACG, the yeast fitness is not above 0.5. The figure for GUUCCGUUGGCGUAAUAGUAAGGCGUAUCCCUCCUAAGGAGAGGACUGCGGGUUCGAGUCCCGUACGGAACG is not above 0.5.

Consider GUUCCGUUGGCGUAAUGGUAGCGCGUCUCCCUCCUGACGAGAAGACUGCGGAUUCGAGUCCCGUACGGAACG, for which the yeast fitness was not above 0.5.

Regarding GUUCCGUUGGCGUAAUGGUGACGAGUCUCCCUCCUAAGGAGAAGACUGCGGCUUCGAGUCCCGUACGGAACG, the yeast fitness is not above 0.5. The figure for GUUCCGUUGGCGUAAUGGUAACGCGUCUCCCUCCUAAGGAGAACACUGCGGGUUCGAGUCCCGUCUGGAACG is not above 0.5; for GUUCCGUUGGCGUAAUGGUAAGGCGUCUCCCUCCUAAGGAGAAGAGUGCGGGUUCGAGUCCUGUAUGGAACG it is not above 0.5; for GUUACGUUGGCGUAAUGGUAACGCGUCUCCACCCUAAGGAGAAGACUGCGGGCUCGAGUGCCGUACGGAACG it is not above 0.5.

For the variant GUUCCGUUGGCGUAAUGGUAAUGCGUCUCCCUCCUAAGGAGAAGACUGCGGGUUGGAGUCCCGUACGGCACG, the yeast fitness was not above 0.5. GUCCCGUUGGCGUACUGGUAACGCGUCUCCCUCCUCAGGAGAAGACAGCGGGUUCGAGUCCGGUACGGAACG: the yeast fitness was not above 0.5.

Regarding GUUCCGUUGGCGUAAUGGUAACGCGUCUCGAUCCUAAGGAGUAGACUGCGGGUUCGAGUCCCGUACGGAACG, the yeast fitness is not above 0.5. The figure for GUUCCGUUAGCGUAAUGGAAACGCGUCUCCUUCCUAAGGAGAAGACUGCGGGUUCGAGCCCCGUACGGAACG is not above 0.5; for GUUCCGUUGGCGUAAUGGUAACGCAUCUCCCUCCUAAGGAGGACACUGGGGGUUCGAGUCCCGUACGGAUCG it is not above 0.5; for GUUCCGUUGGCGUAAUAGUAACGGGUGUCCCUCCUAAGGAGAAGACUGCGGGUUCGAGUCCUGUACAGAACG it is not above 0.5.
